Our source for the IC50 values is US8268874B2, “Anti-cancer compounds, synthesis thereof, and methods of using same” (University of Notre Dame du Lac, priority 2008, dated 2012).

The subject of assay [1] is human leukemia cell line HL-60. As to the kind of experiment: In vitro anti-cancer activity against HL-60 cells. In kind it is cell-based. To be noted: Table 1. The text has this: (§1) For additional details pertaining to the assay, see, for example, Shoemaker, R. H., The NCI60 Human Tumour Cell line Anticancer Drug Screen, Nature Reviews, 6: 813-823, 2006, the disclosure of which is hereby incorporated by reference in its entirety.
(§2) Briefly, the cell lines comprising the National Cancer Institute Anti-cancer Drug Screen panel were obtained and processed as described previously. After an initial acquisition, in vitro expansion was followed by cryopreservation of a large number of master stock samples, for serial rethawing at 20-passage intervals. The parental cells included the small cell lung carcinoma cell line UMCC-1, the human leukemia cell line HL-60, estrogen receptor-positive MCF7 and ZR-75B human breast carcinoma cells, and estrogen receptor-negative MDA-MB231 human breast carcinoma cells. The parental cells were grown in monolayers or in suspension in Eagle's minimum essential medium containing 10% fetal bovine serum, 2 mM L-glutamine, 100 units/ml penicillin, and 100 μg/ml streptomycin in 5% CO2 at 37° C.
(§3) The current version of COMPARE is configured to calculate pairwise correlations with the log10 of one of the specific National Cancer Institute cell line activity parameters GI50, TGI, or LC50. […]

Assay [2] deals with human breast cancer cell line MCF-7. As to the kind of experiment: NCI anti-cancer drug screen, growth inhibition of MCF-7 cells. In kind it is cell-based. Conditions: MCF7, Table 1.
Text: as §1, §2, §3

As a reminder, the IC50 is the concentration needed to halve the response being measured. Higher therefore signals weaker potency. For the compound `COc1cc2c(c(OC)c1OC)-c1ccc(OC)c(=O)cc1[C@@H](NC(C)=O)CC2` [colchicine, reference compound], the IC50 in assay [1] was 120 nM; in assay [2], 4 nM.
